Assay results reported in patent US20240141060A1, “DOSAGE REGIMES FOR ANTI-CD73 AND ANTI-ENTPD2 ANTIBODIES AND USES THEREOF” (NOVARTIS AG, priority 2021, published 2024).
Changes are numbered by the printed parent chain. Results are given in words; binding and its absence hold for the method and conditions named. Some entries that bind do so weakly or less than the wild type.

By UniProt entry, the sequences of proteins in these tests, tags left out. Residues count along the entry.
UniProt P21589, residues 27-547: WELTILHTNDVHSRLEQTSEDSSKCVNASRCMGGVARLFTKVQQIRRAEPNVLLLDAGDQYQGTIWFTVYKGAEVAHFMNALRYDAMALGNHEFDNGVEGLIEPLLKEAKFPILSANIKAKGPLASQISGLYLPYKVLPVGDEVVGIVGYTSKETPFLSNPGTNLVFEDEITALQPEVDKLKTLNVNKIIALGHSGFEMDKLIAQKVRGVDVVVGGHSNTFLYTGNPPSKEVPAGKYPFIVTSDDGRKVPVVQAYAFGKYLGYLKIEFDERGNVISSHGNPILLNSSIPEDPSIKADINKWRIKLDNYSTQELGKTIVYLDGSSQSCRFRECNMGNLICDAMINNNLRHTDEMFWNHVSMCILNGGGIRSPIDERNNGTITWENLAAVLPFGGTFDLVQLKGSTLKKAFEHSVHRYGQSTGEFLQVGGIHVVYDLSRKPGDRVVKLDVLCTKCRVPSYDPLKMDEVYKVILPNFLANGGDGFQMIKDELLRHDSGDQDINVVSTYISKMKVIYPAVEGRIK
UniProt Q61503, residues 29-549: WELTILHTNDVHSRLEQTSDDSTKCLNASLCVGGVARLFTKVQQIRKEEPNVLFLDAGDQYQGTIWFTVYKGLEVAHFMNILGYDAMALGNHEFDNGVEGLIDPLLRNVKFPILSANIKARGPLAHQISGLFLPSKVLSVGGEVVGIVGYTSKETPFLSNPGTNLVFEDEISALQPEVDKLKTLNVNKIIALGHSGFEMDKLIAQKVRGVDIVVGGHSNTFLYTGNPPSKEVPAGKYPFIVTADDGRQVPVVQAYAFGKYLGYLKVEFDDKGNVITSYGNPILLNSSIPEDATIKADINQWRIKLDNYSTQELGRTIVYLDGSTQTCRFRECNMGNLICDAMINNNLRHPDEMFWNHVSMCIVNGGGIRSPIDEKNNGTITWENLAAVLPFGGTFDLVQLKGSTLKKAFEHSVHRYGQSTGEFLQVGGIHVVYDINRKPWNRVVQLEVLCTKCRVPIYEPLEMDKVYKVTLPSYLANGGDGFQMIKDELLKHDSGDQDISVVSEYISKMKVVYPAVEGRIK

B1: 373.A Fab (Fab, V domains shown)
VH: EVQLLESGGGLVQPGGSLRLSCAASGFTFHRYAMSWVRQAPGKGLEWVSAISGSGMNTYYADSVKGRFTISRDNSKNTLYLQMNSLRAEDTAVYYCARGGLYGSGSYLSDFDLWGRGTLVTVSS
VL: EIVLTQSPATLSVSPGERATLSCRASQSVGSNLAWYQQKPGQAPRLLIYGASTRATGIPARFSGSGSGTEFTLTISSLQSEDFAVYYCQQHNAFPYTFGGGTKVEIKR
B2: 918 (antibody, V domains shown)
VH: QVQLQESGPGLVKPSETLSLTCTVSGGSISSYYWSWIRQPPGKGLEWIGYIYSSGSTNYNPSLKSRVTISVDTSKNQFSLKLSSVTAADTAVYYCARESQESPYNNWFDPWGQGTLVTVSS
VL: DIQMTQSPSSVSASVGDRVTITCRASQGISSWLAWYQQKPGKAPKLLIYAASSLQSGVPSRFSGSGSGTDFTLTISSLQPEDFATYYCQQGNSFPRTFGGGTKVEIK
B3: 350 (antibody, V domains shown)
VH: B2 VH with S30E, S31R, S53G, S54R
VL: B2 VL
B4: 356 (antibody, V domains shown)
VH: B2 VH with S30E, S31G, Y32R, S53G, N58K
VL: B2 VL
B5: 358 (antibody, V domains shown)
VH: B2 VH with S31G, Y32R, S53G, S54T
VL: B2 VL
B6: 918.C (antibody, V domains shown)
VH: B2 VH
VL: B2 VL
B7: 350.C (antibody, V domains shown)
VH: B2 VH with S30E, S31R, S53G, S54R
VL: B2 VL
B8: 356.C (antibody, V domains shown)
VH: B2 VH with S30E, S31G, Y32R, S53G, N58K
VL: B2 VL
B9: 358.C (antibody, V domains shown)
VH: B2 VH with S31G, Y32R, S53G, S54T
VL: B2 VL
B10: 373.C (antibody, V domains shown)
VH: B1 VH
VL: EIVLTQSPATLSVSPGERATLSCRASQSVGSNLAWYQQKPGQAPRLLIYGASTRATGIPARFSGSGSGTEFTLTISSLQSEDFAVYYCQQHNAFPYTFGGGTKVEIK
B11: 374.C (antibody, V domains shown)
VH: B1 VH with H30S, R31Y, Y32N, A50S, S54T, M56G, N57S
VL: B10 VL
B12: 376.C (antibody, V domains shown)
VH: B1 VH with H30R, R31S, S52T, M56G, N57L
VL: B10 VL
B13: 377.C (antibody, V domains shown)
VH: B1 VH with H30K, R31S, M56S, N57Y
VL: B10 VL
B14: 379.C (antibody, V domains shown)
VH: B1 VH with H30S, A50S, S54T, M56G, N57S
VL: B10 VL

These binders were tested against Recombinant Human 5′-Nucleotidase/CD73 Protein, CF (R&D Systems Cat: 5795-EN) (human) (UniProt P21589) (assay: Biacore SPR, His-tagged CD73 captured by anti-His antibody on CM5 chip, Fab as analyte).

binding, binds:
B1

The binders below were run against Cynomolgus CD73/NT5E Protein (His Tag) (Sino Biological Cat: 90192-C08H-50) (cynomolgus monkey) in the same assay as above.

binding, binds:
B1

The binders below were run against Recombinant Mouse 5′-Nucleotidase/CD73 Protein, CF (R&D Systems Cat: 4488-EN) (mouse) (UniProt Q61503) (assay: restated binding profile (Octet)).

binding, binds:
B2
B3
B4
B5

What follows are binders tested against Recombinant Human 5′-Nucleotidase/CD73 Protein, CF (R&D Systems Cat: 5795-EN) (human) (UniProt P21589) (assay: screen of yeast-displayed human antibodies for binding to human CD73 (data not shown)).

binding, binds:
B2

Each binder was assayed against Recombinant Human 5′-Nucleotidase/CD73 Protein, CF (R&D Systems Cat: 5795-EN) (human) (UniProt P21589) (assay: ForteBio Octet (BLI)).

binding, binds:
B6
B7
B8
B9
B10
B11
B12
B13
B14

The binders below were run against Cynomolgus CD73/NT5E Protein (His Tag) (Sino Biological Cat: 90192-C08H-50) (cynomolgus monkey) (assay: ForteBio Octet (BLI)).

binding, binds:
B7
B8
B9
B10
B11
B13
B14

What follows are binders tested against Recombinant Mouse 5′-Nucleotidase/CD73 Protein, CF (R&D Systems Cat: 4488-EN) (mouse) (UniProt Q61503) (assay: ForteBio Octet (BLI)).

binding, binds:
B6
B7
B8
B9
